Holding throughout (assay): affinity purification with mass spectrometry; extracts of AT3 cells overexpressing CLR-Fc fusion protein (and control AT3 cells) precipitated with protein A-Sepharose, 2 h; lysis and wash buffer 50 mM Tris HCl pH 8.0, 300 mM NaCl, 1 mM MgCl2, 10 mM KCl, 0.5% NP-40, 10% glycerol; MS/MS of the co-precipitated proteins
The target of one experiment is T1, sClec4e-Fc (mouse) (UniProt Q9R0Q8).
T1 sequence: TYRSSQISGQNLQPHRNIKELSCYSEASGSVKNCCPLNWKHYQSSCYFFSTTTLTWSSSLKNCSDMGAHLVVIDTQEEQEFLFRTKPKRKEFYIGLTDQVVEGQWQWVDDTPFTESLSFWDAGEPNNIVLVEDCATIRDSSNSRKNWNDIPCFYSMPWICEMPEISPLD

Chains of the proteins cited; added tags and fusions are not shown. Residues count along the entry.
UniProt P10852: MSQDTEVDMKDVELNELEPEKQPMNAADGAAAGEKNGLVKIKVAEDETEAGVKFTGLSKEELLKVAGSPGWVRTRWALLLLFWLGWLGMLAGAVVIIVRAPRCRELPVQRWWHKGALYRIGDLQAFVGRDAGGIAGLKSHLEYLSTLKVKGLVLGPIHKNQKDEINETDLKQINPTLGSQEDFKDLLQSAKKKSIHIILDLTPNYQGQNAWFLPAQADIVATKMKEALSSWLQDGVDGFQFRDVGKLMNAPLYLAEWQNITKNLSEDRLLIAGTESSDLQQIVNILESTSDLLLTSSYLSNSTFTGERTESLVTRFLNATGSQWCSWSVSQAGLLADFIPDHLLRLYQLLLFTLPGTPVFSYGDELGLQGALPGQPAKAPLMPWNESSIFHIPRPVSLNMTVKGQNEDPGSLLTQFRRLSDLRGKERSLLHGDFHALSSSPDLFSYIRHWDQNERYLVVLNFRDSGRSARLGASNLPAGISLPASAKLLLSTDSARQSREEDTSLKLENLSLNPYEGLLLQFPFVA
UniProt P18760: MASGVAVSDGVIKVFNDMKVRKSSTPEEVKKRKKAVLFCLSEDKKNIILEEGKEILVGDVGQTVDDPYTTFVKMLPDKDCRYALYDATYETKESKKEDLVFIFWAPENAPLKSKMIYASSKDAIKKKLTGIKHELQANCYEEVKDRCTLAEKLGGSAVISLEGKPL
UniProt P02469, residues 22-1786: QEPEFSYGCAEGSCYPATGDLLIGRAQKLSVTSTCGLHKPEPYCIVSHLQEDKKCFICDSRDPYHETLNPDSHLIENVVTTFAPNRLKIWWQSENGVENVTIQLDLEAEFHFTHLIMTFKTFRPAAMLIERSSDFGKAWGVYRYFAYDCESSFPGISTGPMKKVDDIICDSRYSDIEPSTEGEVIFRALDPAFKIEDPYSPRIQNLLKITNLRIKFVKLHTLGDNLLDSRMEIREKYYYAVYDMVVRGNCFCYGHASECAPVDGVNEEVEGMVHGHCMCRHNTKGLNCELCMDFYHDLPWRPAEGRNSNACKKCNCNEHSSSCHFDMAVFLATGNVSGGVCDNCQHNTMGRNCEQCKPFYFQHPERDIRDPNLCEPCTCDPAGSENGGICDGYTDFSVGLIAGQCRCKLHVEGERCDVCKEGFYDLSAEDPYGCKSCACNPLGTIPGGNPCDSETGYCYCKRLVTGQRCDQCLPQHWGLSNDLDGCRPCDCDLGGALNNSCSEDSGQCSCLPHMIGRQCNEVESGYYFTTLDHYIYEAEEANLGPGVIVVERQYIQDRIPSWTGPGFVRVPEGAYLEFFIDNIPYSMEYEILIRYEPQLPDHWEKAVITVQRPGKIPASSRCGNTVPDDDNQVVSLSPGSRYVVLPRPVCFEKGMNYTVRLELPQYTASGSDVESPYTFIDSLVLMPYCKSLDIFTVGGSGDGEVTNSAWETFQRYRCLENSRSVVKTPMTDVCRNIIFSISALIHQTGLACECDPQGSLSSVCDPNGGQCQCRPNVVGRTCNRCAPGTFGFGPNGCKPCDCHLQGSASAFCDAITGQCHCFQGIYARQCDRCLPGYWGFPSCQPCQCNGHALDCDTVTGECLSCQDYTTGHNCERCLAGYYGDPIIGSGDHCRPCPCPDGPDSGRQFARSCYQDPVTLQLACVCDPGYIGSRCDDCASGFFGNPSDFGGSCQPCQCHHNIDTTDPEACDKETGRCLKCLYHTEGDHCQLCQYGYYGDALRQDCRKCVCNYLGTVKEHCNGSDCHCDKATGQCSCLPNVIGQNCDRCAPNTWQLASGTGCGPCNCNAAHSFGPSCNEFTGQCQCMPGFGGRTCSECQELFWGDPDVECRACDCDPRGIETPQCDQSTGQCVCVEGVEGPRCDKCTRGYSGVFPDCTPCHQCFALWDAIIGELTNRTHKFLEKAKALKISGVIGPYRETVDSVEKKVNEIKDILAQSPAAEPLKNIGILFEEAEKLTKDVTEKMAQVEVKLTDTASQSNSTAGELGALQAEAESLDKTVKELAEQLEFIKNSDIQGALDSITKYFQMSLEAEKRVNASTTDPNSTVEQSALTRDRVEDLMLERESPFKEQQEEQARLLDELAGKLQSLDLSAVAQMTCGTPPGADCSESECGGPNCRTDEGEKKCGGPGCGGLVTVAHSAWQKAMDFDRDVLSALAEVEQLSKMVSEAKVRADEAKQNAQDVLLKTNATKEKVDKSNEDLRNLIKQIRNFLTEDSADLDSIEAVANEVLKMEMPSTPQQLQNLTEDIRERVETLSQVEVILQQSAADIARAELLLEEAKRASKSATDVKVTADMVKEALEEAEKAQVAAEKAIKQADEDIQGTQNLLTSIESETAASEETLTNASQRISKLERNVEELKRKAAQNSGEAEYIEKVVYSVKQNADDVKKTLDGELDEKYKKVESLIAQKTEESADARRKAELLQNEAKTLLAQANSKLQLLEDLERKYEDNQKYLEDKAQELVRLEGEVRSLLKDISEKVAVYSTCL
UniProt Q61292, residues 36-1799: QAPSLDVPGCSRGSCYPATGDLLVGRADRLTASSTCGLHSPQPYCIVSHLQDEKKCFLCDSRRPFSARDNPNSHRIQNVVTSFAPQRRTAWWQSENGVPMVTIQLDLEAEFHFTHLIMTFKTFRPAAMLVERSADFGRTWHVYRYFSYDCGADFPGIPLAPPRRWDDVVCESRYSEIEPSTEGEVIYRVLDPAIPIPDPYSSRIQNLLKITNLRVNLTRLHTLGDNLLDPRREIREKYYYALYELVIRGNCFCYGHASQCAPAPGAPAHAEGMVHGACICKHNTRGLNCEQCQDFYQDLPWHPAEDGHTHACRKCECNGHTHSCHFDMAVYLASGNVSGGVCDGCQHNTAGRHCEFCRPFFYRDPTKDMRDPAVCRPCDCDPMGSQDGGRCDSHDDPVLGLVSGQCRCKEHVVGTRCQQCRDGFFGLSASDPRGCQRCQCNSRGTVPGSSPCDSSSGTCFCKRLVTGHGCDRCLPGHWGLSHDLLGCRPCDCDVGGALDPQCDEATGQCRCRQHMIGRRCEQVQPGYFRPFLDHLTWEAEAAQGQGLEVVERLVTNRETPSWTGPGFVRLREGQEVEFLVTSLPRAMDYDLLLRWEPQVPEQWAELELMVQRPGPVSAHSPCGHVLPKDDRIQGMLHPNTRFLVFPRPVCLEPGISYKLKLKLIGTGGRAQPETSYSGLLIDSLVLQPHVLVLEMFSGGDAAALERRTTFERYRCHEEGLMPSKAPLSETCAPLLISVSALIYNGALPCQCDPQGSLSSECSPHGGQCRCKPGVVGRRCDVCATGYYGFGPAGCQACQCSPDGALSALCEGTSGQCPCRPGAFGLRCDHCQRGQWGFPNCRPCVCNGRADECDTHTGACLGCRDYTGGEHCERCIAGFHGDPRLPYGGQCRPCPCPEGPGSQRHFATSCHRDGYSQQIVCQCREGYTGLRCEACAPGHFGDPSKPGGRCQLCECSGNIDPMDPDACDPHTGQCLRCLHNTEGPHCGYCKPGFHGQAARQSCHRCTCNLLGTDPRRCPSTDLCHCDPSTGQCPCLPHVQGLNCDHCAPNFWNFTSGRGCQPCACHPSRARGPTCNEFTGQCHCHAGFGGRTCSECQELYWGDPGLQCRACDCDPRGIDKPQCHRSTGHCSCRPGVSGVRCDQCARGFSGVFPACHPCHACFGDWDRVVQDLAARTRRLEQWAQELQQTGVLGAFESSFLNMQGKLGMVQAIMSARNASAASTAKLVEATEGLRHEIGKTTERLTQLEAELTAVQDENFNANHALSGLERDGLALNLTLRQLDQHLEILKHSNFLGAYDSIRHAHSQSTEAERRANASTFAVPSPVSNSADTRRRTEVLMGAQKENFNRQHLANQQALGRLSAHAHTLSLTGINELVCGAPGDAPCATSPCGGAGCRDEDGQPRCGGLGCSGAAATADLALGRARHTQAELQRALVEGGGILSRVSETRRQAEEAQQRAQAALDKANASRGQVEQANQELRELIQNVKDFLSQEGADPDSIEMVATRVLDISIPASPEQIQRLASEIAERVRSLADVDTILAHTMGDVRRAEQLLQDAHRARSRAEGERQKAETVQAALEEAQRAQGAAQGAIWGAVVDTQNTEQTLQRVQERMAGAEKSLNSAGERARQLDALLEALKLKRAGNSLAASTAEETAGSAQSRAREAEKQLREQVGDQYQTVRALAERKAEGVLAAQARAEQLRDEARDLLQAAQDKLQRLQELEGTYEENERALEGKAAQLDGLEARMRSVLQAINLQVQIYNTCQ
UniProt P02468, residues 34-1607: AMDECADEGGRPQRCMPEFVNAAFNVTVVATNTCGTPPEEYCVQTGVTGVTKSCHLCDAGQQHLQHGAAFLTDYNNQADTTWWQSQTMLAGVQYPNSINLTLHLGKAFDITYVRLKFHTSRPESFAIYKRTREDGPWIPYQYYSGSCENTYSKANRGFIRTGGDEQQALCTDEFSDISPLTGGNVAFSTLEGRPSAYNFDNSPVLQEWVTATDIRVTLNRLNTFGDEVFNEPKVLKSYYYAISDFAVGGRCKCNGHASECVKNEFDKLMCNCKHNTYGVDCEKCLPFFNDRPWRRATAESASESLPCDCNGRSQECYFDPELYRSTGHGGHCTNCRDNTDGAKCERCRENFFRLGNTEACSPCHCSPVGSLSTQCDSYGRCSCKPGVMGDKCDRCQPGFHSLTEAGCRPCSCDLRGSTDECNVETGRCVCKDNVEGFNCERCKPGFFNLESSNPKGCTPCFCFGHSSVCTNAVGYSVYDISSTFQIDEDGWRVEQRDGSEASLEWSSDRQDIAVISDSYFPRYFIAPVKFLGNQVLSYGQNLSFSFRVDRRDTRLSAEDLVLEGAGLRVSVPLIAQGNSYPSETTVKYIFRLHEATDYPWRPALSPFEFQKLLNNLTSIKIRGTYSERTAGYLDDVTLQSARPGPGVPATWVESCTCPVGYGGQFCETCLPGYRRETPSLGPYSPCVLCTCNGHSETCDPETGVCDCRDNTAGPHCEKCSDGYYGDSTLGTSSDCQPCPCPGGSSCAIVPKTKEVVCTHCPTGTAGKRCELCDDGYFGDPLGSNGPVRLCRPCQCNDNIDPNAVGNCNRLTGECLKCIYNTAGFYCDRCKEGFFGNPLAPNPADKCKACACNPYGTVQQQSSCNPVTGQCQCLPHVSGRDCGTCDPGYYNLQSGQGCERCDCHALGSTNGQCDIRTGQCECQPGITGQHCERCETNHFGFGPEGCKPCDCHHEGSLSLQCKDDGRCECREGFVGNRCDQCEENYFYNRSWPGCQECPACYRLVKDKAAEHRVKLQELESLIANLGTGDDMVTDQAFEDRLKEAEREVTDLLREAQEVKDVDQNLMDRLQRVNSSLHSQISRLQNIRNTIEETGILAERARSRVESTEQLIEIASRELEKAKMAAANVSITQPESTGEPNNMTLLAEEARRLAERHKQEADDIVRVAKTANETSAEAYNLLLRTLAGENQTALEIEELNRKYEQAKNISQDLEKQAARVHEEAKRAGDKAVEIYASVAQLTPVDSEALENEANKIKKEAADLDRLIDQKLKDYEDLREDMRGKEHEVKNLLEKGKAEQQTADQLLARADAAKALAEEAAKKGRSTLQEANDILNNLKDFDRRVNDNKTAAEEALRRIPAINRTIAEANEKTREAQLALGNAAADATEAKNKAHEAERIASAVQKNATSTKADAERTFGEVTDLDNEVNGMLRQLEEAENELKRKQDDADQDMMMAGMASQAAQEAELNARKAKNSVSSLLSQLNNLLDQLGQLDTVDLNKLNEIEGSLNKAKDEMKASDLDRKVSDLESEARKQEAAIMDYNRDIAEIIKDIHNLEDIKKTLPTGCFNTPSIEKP

For another experiment, the target named is T2, sNKG2D-Fc (mouse) (UniProt O54709).
T2 sequence: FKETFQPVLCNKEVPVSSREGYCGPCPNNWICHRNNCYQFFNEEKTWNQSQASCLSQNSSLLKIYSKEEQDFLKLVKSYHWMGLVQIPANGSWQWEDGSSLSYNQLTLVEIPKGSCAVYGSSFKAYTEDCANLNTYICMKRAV

The next experiment deals with T3, sDectin-1-Fc (mouse) (UniProt Q6QLQ4).
T3 sequence: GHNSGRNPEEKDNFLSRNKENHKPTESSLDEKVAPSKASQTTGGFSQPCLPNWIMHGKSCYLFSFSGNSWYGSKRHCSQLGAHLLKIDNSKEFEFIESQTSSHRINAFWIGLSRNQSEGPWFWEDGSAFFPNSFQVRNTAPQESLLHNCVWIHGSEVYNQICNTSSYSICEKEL

This is an account of results in article PMC9030733.

Results are given in words; binding and its absence hold for the method and conditions named. In cells and extracts the contact can be indirect. Here binding means that the protein was enriched with, or labelled near, the bait; the list need not be complete. Sequences can lack the tags named with a protein.

For “4F2 cell-surface antigen heavy chain (from UniProt P10852 1-526)”, the binding entry with sClec4e-Fc (mouse) is “binds”.
For the molecule “Clathrin light chain A (from UniProt B1AWE0)”, the binding result in the experiment with sClec4e-Fc (mouse) and with sNKG2D-Fc (mouse) was “binds” in each case.
Consider Cofilin-1 (from UniProt P18760 1-166), for which the binding result in the experiment with sClec4e-Fc (mouse), in the experiment with sDectin-1-Fc (mouse) and in the experiment with sNKG2D-Fc (mouse) was “binds” in each case.
Consider “Laminin subunit beta-1 (from UniProt P02469 22-1786)”, for which the binding result with sClec4e-Fc (mouse), with sDectin-1-Fc (mouse) and with sNKG2D-Fc (mouse) was “binds” throughout.
Take “Laminin subunit beta-2 (from UniProt Q61292 36-1799)”: the binding entry in the experiment with sClec4e-Fc (mouse), with sDectin-1-Fc (mouse) and in the experiment with sNKG2D-Fc (mouse) was “binds” in each case.
As for “Laminin subunit gamma-1 (from UniProt P02468 34-1607)”, the binding result with sClec4e-Fc (mouse), with sDectin-1-Fc (mouse) and with sNKG2D-Fc (mouse) was “binds” each time.
Take Vinculin (from UniProt Q64727 1-1066): the binding result with sDectin-1-Fc (mouse) was “binds”.

B1: Nidogen-1 (endogenous) (protein, UniProt P10493 29-1245)
chain: LNRQELFPFGPGQGDLELEAGDDVVSPSLELIGELSFYDRTDITSVYVTTNGIIAMSEPPATEYHPGTFPPSFGSVAPFLADLDTTDGLGNVYYREDLSPFIIQMAAEYVQRGFPEVSFQPTSVVVVTWESVAPYGGPSSSPAEEGKRNTFQAVLASSNSSSYAIFLYPEDGLQFFTTFSKKDESQVPAVVGFSKGLVGFLWKSNGAYNIFANDRESIENLAKSSNAGHQGVWVFEIGSPATAKGVVSADVNLDLDDDGADYEDEDYDLVTSHLGLEDVATPSPSHSPRRGYPDPHNVPRILSPGYEATERPRGVPTERTRSFQLPAERFPQHHPQVIDVDEVEETGVVFSYNTGSQQTCANNRHQCSVHAECRDYATGFCCRCVANYTGNGRQCVAEGSPQRVNGKVKGRIFVGSSQVPVVFENTDLHSYVVMNHGRSYTAISTIPETVGYSLLPLAPIGGIIGWMFAVEQDGFKNGFSITGGEFTRQAEVTFLGHPGKLVLKQQFSGIDEHGHLTISTELEGRVPQIPYGASVHIEPYTELYHYSSSVITSSSTREYTVMEPDQDGAAPSHTHIYQWRQTITFQECAHDDARPALPSTQQLSVDSVFVLYNKEERILRYALSNSIGPVRDGSPDALQNPCYIGTHGCDSNAACRPGPGTQFTCECSIGFRGDGQTCYDIDECSEQPSRCGNHAVCNNLPGTFRCECVEGYHFSDRGTCVAAEDQRPINYCETGLHNCDIPQRAQCIYMGGSSYTCSCLPGFSGDGRACRDVDECQHSRCHPDAFCYNTPGSFTCQCKPGYQGDGFRCMPGEVSKTRCQLEREHILGAAGGADAQRPTLQGMFVPQCDEYGHYVPTQCHHSTGYCWCVDRDGRELEGSRTPPGMRPPCLSTVAPPIHQGPVVPTAVIPLPPGTHLLFAQTGKIERLPLERNTMKKTEAKAFLHIPAKVIIGLAFDCVDKVVYWTDISEPSIGRASLHGGEPTTIIRQDLGSPEGIALDHLGRTIFWTDSQLDRIEVAKMDGTQRRVLFDTGLVNPRGIVTDPVRGNLYWTDWNRDNPKIETSHMDGTNRRILAQDNLGLPNGLTFDAFSSQLCWVDAGTHRAECLNPAQPGRRKVLEGLQYPFAVTSYGKNLYYTDWKTNSVIAMDLAISKEMDTFHPHKQTRLYGITIALSQCPQGHNYCSVNNGGCTHLCLPTPGSRTCRCPDNTLGVDCIERK
As to B1, the binding entry with sClec4e-Fc (mouse) and with sDectin-1-Fc (mouse) was “binds” throughout.

B2: Protein S100-A11 (protein, UniProt P50543 1-98)
chain: MPTETERCIESLIAVFQKYSGKDGNNTQLSKTEFLSFMNTELAAFTKNQKDPGVLDRMMKKLDLNCDGQLDFQEFLNLIGGLAIACHDSFIQTSQKRI
As for B2, the binding entry with sDectin-1-Fc (mouse) is listed as “binds”.

B3: Calnexin (protein, UniProt P35564 21-591)
chain: HDGHDDDAIDIEDDLDDVIEEVEDSKSKSDASTPPSPKVTYKAPVPTGEVYFADSFDRGSLSGWILSKAKKDDTDDEIAKYDGKWEVDEMKETKLPGDKGLVLMSRAKHHAISAKLNKPFLFDTKPLIVQYEVNFQNGIECGGAYVKLLSKTAELSLDQFHDKTPYTIMFGPDKCGEDYKLHFIFRHKNPKTGVYEEKHAKRPDADLKTYFTDKKTHLYTLILNPDNSFEILVDQSVVNSGNLLNDMTPPVNPSREIEDPEDRKPEDWDERPKIADPDAVKPDDWDEDAPSKIPDEEATKPEGWLDDEPEYIPDPDAEKPEDWDEDMDGEWEAPQIANPKCESAPGCGVWQRPMIDNPNYKGKWKPPMIDNPNYQGIWKPRKIPNPDFFEDLEPFKMTPFSAIGLELWSMTSDIFFDNFIISGDRRVVDDWANDGWGLKKAADGAAEPGVVLQMLEAAEERPWLWVVYILTVALPVFLVILFCCSGKKQSNAMEYKKTDAPQPDVKDEEGKEEEKNKRDEEEEEEKLEEKQKSDAEEDGVTGSQDEEDSKPKAEEDEILNRSPRNRKPRRE
For the molecule B3, in the experiment with sClec4e-Fc (mouse), the binding entry was “binds”.

B4: Annexin A3 (protein, UniProt O35639 1-323)
chain: MASIWVGPRGTIKDYPGFSPSVDAEAIRKAIRGLGTDEKTLINILTERSNAQRQLIVKQYQAAYEQELKDDLKGDLSGHFEHVMVALVTAPALFDAKQLKKSMKGTGTDEDALIEILTTRSSRQMKEISQAYYTVYKKSLGDDISSETSGDFRKALLTLADGRRDESLKVDEHLAKKDAQILYNAGENKWGTDEDKFTEVLCLRSFPQLKLTFDEYRNISQKDIEDSIKGELSGHFEDLLLAIVHCARNTPAFLAERLHQALKGAGTDEFTLNRIMVSRSEIDLLDIRHEFKKHYGYSLYSAIQSDTSGDYRTVLLKICGEDD
As to B4, the binding entry in the experiment with sDectin-1-Fc (mouse) is given as “binds”.
